Experimental data from PubChem BioAssay AID256 (DTP/NCI, 2004).
The list shows only some results of the screen, not a fair sample: it gathers tests that were run many times, whatever their T/C, doses with no T/C, and many T/C values between a quarter and a half above the control. Other doses and runs of a compound stand elsewhere. T/C: endpoint of the treated group in % of that of the vehicle group. Some entries give survivors of the animals treated and no T/C: the source holds a T/C of zero for them, seemingly a mark for toxic or unscored doses. Some doses without a T/C left all or most animals alive at the check, yet need not have been tolerated: survival well below the control is almost never listed, so the zero probably covers shortened survival too. Survivors were counted at the toxicity check, usually on the fifth day, unless a day is given; later deaths do not show. Schedule codes are those of the source, taken here to give the interval after Q, in days (D) or hours (H), and the number of doses after X. Some entries hold several experiments; the results are listed from low to high. For survival time, the PubChem record calls one and a half times the control and up active, and a quarter to a half above the control has no call in these data; cut-offs in other NCI protocols can differ.

Test system: CD2F1 mice, L1210 leukemia ip, survival T/C
Experiment: NCI In Vivo Anticancer Drug Screen. Data for tumor model L1210 Leukemia (intraperitoneal) in CD2F1 (CDF1) mice
Conditions: higher T/C = longer survival; for T/C: dose: 6.25 mg/kg/injection
In short: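 Activity against a transplanted murine tumor was judged by comparing the compound group with a vehicle group. The outcome in the treated animals was divided by that in the controls.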

[1] = T/C endpoint: mean survival time, dose: 200.0 mg/kg/injection, schedule: Q01DX001 (ip), vehicle: saline with Tween-80
[2] = T/C endpoint: mean survival time, dose: 400.0 mg/kg/injection, schedule: Q01DX001 (ip), vehicle: saline with Tween-80
[3] = T/C endpoint: mean survival time, dose: 400.0 mg/kg/injection, schedule: Q04DX003 (ip), vehicle: saline with Tween-80
[4] = T/C endpoint: mean survival time, dose: 400.0 mg/kg/injection, schedule: Q01DX001 (ip), vehicle: saline

ClCc1ccc(Cl)cc1
survivor count [1]: 0 of 6 | survivor count [2]: 0 of 6

N#C/C(=C(\N)c1ccccc1)c1ccccc1
survivor count (T/C endpoint: mean survival time, dose: 200.0 mg/kg/injection, schedule: Q01DX001 (ip), vehicle: Klucel (hydroxypropylcellulose) (HPC)): 3 of 3

O=C(O)C(Br)C(Br)C(=O)O (stereo unspecified)
survivor count (T/C endpoint: mean survival time, dose: 400.0 mg/kg/injection, schedule: Q01DX001 (ip), vehicle: carboxymethylcellulose (CMC)): 2 of 4

S=C(Nc1ccccc1)N1CCC(CCCC2CCN(C(=S)Nc3ccccc3)CC2)CC1
survivor count [3]: 6 of 6

Cc1ccc(S(=O)(=O)OCC2OC3(COS(=O)(=O)c4ccc(C)cc4)OC(C)(C)OC3C2O)cc1 (stereo unspecified)
survivor count [3]: 5 of 6

N#CSCc1ccccc1
survivor count (T/C endpoint: mean survival time, dose: 25.0 mg/kg/injection, schedule: Q01DX009 (ip), vehicle: saline with Tween-80): 1 of 3 | survivor count (T/C endpoint: mean survival time, dose: 50.0 mg/kg/injection, schedule: Q01DX009 (ip), vehicle: saline with Tween-80): 0 of 3 and 1 of 3 | survivor count (T/C endpoint: mean survival time, dose: 100.0 mg/kg/injection, schedule: Q01DX009 (ip), vehicle: saline with Tween-80): 0 of 3 | survivor count (T/C endpoint: mean survival time, dose: 200.0 mg/kg/injection, schedule: Q01DX009 (ip), vehicle: saline with Tween-80): 0 of 3

CC(C)(C[NH-])C[NH-].O=C(O)CC(=O)O.[Pt+2]
T/C (T/C endpoint: median survival time, schedule: Q04DX003 (ip), vehicle: distilled water + Tween-80): 149 % of control | T/C (T/C endpoint: median survival time, schedule: Q04DX003 (ip), vehicle: water): 132 % of control | survivor count (T/C endpoint: median survival time, dose: 50.0 mg/kg/injection, schedule: Q04DX003 (ip), vehicle: distilled water + Tween-80): 1 of 6 | survivor count (T/C endpoint: median survival time, dose: 100.0 mg/kg/injection, schedule: Q04DX003 (ip), vehicle: distilled water + Tween-80): 2 of 6 | survivor count (T/C endpoint: median survival time, dose: 200.0 mg/kg/injection, schedule: Q04DX003 (ip), vehicle: distilled water + Tween-80): 2 of 6

CC1=NC(C#N)=C(C#N)N=C(C)C1
survivor count (T/C endpoint: mean survival time, dose: 100.0 mg/kg/injection, schedule: Q04DX003 (ip), vehicle: Klucel (hydroxypropylcellulose) (HPC)): 0 of 6 | survivor count (T/C endpoint: mean survival time, dose: 200.0 mg/kg/injection, schedule: Q04DX003 (ip), vehicle: Klucel (hydroxypropylcellulose) (HPC)): 0 of 6 | survivor count (T/C endpoint: mean survival time, dose: 400.0 mg/kg/injection, schedule: Q04DX003 (ip), vehicle: Klucel (hydroxypropylcellulose) (HPC)): 0 of 6

CC(C)(C)CC(C)(C)c1ccc(O)cc1O
survivor count [1]: 2 of 6 | survivor count [2]: 0 of 6

CS(=O)(=O)OCC(=O)C(=O)COS(C)(=O)=O
survivor count (T/C endpoint: mean survival time, dose: 200.0 mg/kg/injection, schedule: Q01DX001 (ip), vehicle: saline): 1 of 6 | survivor count [4]: 1 of 6

O=C(COc1cc(Cl)c(Cl)cc1Cl)OCCOc1cc(Cl)c(Cl)cc1Cl
survivor count (T/C endpoint: mean survival time, dose: 7.5 mg/kg/injection, schedule: Q04DX003 (ip), vehicle: saline): 6 of 6 | survivor count (T/C endpoint: mean survival time, dose: 50.0 mg/kg/injection, schedule: Q01DX001 (ip), vehicle: saline): 6 of 6 | survivor count (T/C endpoint: mean survival time, dose: 100.0 mg/kg/injection, schedule: Q01DX001 (ip), vehicle: saline): 6 of 6 | survivor count [4]: 6 of 6
